Here are results for one sequence from patent US5641486.

Chains of the proteins cited; added tags and fusions are not shown. A line that says so, or that is headed by a name, gives the form on record, which may keep a tag or linker.
ATF1/CREB (HeLa cell extract CRE-binding proteins) (Homo sapiens), one chain, as listed by the source, chain 1 of 2: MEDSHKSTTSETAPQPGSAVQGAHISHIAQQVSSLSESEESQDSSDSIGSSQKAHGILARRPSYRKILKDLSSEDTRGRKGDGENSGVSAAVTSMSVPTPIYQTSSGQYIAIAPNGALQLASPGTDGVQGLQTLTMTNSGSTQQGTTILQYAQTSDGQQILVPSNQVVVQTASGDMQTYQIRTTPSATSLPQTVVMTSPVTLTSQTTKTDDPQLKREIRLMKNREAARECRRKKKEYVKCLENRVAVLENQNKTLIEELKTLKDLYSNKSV
ATF1/CREB (HeLa cell extract CRE-binding proteins) (Homo sapiens), one chain, as listed by the source, chain 2 of 2: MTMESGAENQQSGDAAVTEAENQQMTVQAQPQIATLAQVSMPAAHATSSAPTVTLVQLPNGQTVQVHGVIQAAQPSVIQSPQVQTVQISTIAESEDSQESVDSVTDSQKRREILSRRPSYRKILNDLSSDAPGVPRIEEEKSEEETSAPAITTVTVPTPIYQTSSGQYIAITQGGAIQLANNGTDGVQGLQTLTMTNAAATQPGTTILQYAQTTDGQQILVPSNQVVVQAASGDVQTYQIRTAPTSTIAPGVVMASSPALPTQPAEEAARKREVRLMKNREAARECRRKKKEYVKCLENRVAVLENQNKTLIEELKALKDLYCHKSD

In the data set the test system is ATF1/CREB (HeLa cell extract CRE-binding proteins) (Homo sapiens). Description: EMSA. As to conditions: MAb 1, 3, 5 supershift most CRE binding protein, MAb 4 reduced complexes, protein in an extract, protein details: HeLa extract, label: 32P.

Results from cells or extracts need not show a direct contact.

On to “AGAGATTGCCTGACGTCAGAGAGCTAG (double strand) [CRE oligonucleotide]”, for which the binding result is reported as “binds”.
